In patent US20060089263A1, “2-Propenal and related enal compounds for controlling plant pests and weeds in soil” (priority 2004, published 2006):
Some of these results come from one statement about several compounds together. Some compounds share one range, which may span the group rather than tell each member.

What was measured:
[1] = test system: yellow nutsedge (Cyperus esculentus); test: Greenhouse herbicidal experiment, post-emergence; format: in vivo; conditions: 200 mgs/kg equivalent to 400 lbs/A broadcast
Description: Herbicidal properties of the compounds were studied as described for experiments on nematicidal activities. The soil was from a cotton field with a silt loam soil from a cotton field with similar properties as the one used for the nematode experiments. It was infested with a variety of weeds and was artificially seeded with 5 yellow nutsedge tubercles/pot. Nutsedge plants and other weeds were grown for a month, and the pots were then treated with 2-propenal and covered with polyethylene bags for 10 days, when the bags were removed and weed counts taken at two weeks and one month after treatment. Rates used in these experiments were: 0, 100, 200, 300, 400, 500, 600, 700, and 800 mgs/kg soil.
All data were analyzed according to standard procedures for analysis of variance. Fisher's Least Significant Differences (FLSD) were calculated when F values were significant and are included in the graphs. Curvilineal analyses were conducted according to standard procedures with the TableCurve 2D program.

[2] = test system: reniform nematode (Rotylenchulus reniformis); test: Greenhouse nematicidal experiment, soil infested with reniform nematode; format: in vivo; conditions: equivalent to 100-200 lbs/acre broadcast
Description: The nematicidal properties of 2-propenal (CH2═CH—CHO; acrolein), 2-butenal (CH3—CH═CH—CHO; crotonaldehyde), and trans 2-pentenal (CH3—CH2—CH═CH—CHO) were studied in greenhouse experiments with soil severely infected with the reniform nematode (Rotylenchulus reniformis). The soil was collected from a cotton field and was a sandy loam with pH 6.2, organic matter content <1.0% and cation exchange capacity <10 meq/100 gms soil. The soil was mixed 50:50 by volume, with washed fine siliceous river sand and the mixture, here-from referred to as soil. The moist soil (50% field capacity) was apportioned in 1 Kg quantities contained in 4L polyethylene bags. The compounds were applied to the soil in the bags, and after thorough mixing the treated soil was transferred to 1 L capacity, 4-inch-diam. plastic (PVC) pots which were then covered with a polyethylene bag (1 mil) held tightly to the outside wall of the pot with a rubber band. The covered pots were placed on a greenhouse table and after 10 days the bags were removed and soil samples for nematode analyses were collected from each pot. The pots were planted with “Young” soybean (5 seed/pot.) Soybean plants were grown for 8 weeks when they were removed, soil samples taken for nematode analysis (salad bowl incubation technique), and data were collected on shoot height, and fresh weights of shoots and roots. The relative health of the root systems was determined using a subjective scale. […] Values between 1 and 5 represented intermediate degrees of damage. The roots were incubated to assess nematode populations in them.
Emulsifiable concentrates (EC's) were prepared for all three compounds containing 10% (w/w) emulsogen. The EC's were used to make aqueous emulsions containing 2.5% active ingredient; these emulsions were then used to deliver the compounds to soil. […]
All data were analyzed according to standard procedures for analysis of variance. Fisher's Least Significant Differences (FLSD) were calculated when F values were significant and are included in the graphs. […]

Row | Compound | rates with which yellow nutsedge and other weeds were practically eliminated [1] [mgs/kg soil] | application rates that eliminate plant pathogenic nematodes, retain microbivorous nematodes and increase growth of plants [2]
1 | 2-propenal | ≥ 200 | 50-100 mgs/kg soil
2 | CC/C=C/C=O [2-pentenal, trans-2-pentenal] | ≥ 200 | 50-100 mgs/kg soil
3 | 2-butenal | ≥ 200 | 50-100 mgs/kg soil
